Test results taken from patent US20200199225A1.
Results are given in words; binding and its absence hold for the method and conditions named.

Target: CLL receptor reconstituted in RAMOS cells (own BCR deleted by CRISPR)
Experiment: FACS on RAMOS cells reconstituted with the CLL receptor

B1: AVA-mAb01 (antibody, V domains shown)
VH: QVQLQQSGPGLVQPSQSLSITCTVSGFSLTSYGIHWVRQSPGKGLEWLGVIWRGGGTDSNAAFMSRLSITKDNSKSQVFFKMNSLQADDTAIYYCARSRYDEEESMNYWGQGTSVTVSS
VL: QIVLTQSPASLSASVGETVTITCRASGNIHSYLAWYQQKQGKSPQLLVYNAKTLADGVPSRFSGSGSGTQYSLKINSLQPEDFGSYYCQHFWNTPPTFGAGTKLELK
B1 was tested, and the binding was “no binding”.
